Measured values reported in publication PMC12775674.
No constants are given. Whether binding was seen depends on the method and setting. In cells and extracts the contact can be indirect. Some results given as binding are weak or reduced against the parent protein; the word gives no strength. Sequences can lack the tags named with a protein.

Protein sequences, listed by entry. Tags and fused reporters are not part of them. Residues count along the entry.
UniProt P02545, residues 1-646: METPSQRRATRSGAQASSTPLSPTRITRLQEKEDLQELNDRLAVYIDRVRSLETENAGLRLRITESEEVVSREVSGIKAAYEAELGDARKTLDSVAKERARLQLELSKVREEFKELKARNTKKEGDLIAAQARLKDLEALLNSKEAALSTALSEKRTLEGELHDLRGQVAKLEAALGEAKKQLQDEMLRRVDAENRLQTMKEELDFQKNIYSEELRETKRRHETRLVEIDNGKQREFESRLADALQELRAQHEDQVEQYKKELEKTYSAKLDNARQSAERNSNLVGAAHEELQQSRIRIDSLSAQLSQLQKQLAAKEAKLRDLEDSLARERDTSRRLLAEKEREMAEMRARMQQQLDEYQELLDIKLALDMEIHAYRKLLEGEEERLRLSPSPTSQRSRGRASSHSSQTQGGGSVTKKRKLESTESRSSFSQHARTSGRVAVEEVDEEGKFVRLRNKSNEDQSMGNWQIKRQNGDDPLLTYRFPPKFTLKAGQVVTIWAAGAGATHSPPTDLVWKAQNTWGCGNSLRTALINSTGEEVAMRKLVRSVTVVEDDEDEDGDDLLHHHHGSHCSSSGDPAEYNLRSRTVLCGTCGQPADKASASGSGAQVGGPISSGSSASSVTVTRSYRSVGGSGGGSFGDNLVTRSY

Target: T1, FLAG-tagged full-length METTL14 (UniProt Q9HCE5)
T1 sequence: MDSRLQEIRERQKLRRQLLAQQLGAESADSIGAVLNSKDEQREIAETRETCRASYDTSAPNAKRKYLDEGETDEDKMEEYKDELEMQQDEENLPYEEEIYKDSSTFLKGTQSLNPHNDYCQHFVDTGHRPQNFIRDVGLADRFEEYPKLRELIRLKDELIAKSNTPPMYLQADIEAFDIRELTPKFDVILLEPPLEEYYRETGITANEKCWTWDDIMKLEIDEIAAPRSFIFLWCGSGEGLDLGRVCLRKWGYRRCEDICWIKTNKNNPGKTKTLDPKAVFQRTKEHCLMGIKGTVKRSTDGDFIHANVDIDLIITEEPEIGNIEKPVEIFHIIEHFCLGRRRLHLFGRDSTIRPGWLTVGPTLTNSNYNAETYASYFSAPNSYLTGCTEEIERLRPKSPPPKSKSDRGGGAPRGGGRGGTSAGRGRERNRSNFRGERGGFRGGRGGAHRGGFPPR
Test: co-IP; anti-FLAG immunoprecipitates from HUVECs expressing FLAG-tagged full-length or truncated METTL14; Western blot for endogenous LMNA

lamin A/C (LMNA) (from UniProt P02545 1-646)
binding: binds
